Experimental findings from PMC12693167, “Design, Synthesis and Anticancer Activity of 6-Substituted-1-(3,4,5-trimethoxyphenyl)-1H-indole Against Tubulin Polymerisation” (Molecules, 2025) are described below.

One may read the IC50 as the concentration that gives 50% inhibition. Read a low IC50 as higher potency.

One test deals with A549 cells. The experiment in a line: CCK-8 antiproliferative assay, A549. The class given is cell-based. The settings on record: Homo sapiens, cell viability (CCK-8), 48 h. On the procedure:
(§1) To evaluate the anticancer potential of the synthesized compounds, a panel of six human and murine cancer cell lines representing different tissue origins was selected, including MCF-7 (human breast adenocarcinoma), MDA-MB-231 (human triple-negative breast cancer), A549 (human non-small cell lung cancer), HeLa (human cervical cancer), A375 (human melanoma), and B16-F10 (murine melanoma) (Table 2). The antiproliferative activity of compounds 3a–3p was assessed using the standard CCK-8 assay after 48 h of drug treatment at varying concentrations. DMSO was used as the vehicle control, and all experiments were performed in triplicate to ensure reproducibility.
(§2) Human breast cancer cells (MCF-7), human lung cancer cells (A549), human cervical cancer cells (HeLa), human triple-negative breast cancer cells (MDA-MB-231), and human malignant melanoma cells (A375) were cultured in DMEM. Mouse melanoma cells (B16F10) were maintained in RPMI-1640 medium. […]
(§3) The cytotoxicity of the test compounds was evaluated against MCF-7, A549, HeLa, MDA-MB-231, A375, and B16F10 using the CCK-8 assay. […] The CCK-8 solution was added and incubated for another 1 h, and then, the absorbance was detected with a microplate reader at a wavelength of 450 nm. The IC50 values were calculated by nonlinear regression analysis using GraphPad Prism 8.0.2. […]
(Tetrazolium assays rely on reduction of a dye to a coloured formazan, in cell work by metabolically active cells.)

The test system of another test is B16-F10 cells. The experiment in a line: CCK-8 antiproliferative assay, B16-F10. The format is cell-based, murine. The settings on record: Mus musculus, cell viability (CCK-8), 48 h. As for the experimental part: as §1, §2, §3
The test system of a further test is MDA-MB-231 cells. The experiment in a line: CCK-8 antiproliferative assay, MDA-MB-231. The class given is cell-based. As to conditions: Homo sapiens, cell viability (CCK-8), 48 h. As for the experimental part: as §1, §2, §3
A further test has as its system HeLa cells. The experiment in a line: CCK-8 antiproliferative assay, HeLa. The class given is cell-based. The settings on record: Homo sapiens, cell viability (CCK-8), 48 h. On the procedure:
as §1, §2, §3

`COc1cc2c(c(OC)c1OC)-c1ccc(OC)c(=O)cc1[C@@H](NC(C)=O)CC2` [Colchicine, reference compound]: the IC50 turned out to be 82 ± 6 nM with A549 cells, 13 ± 1 nM in the test with B16-F10 cells, 480 ± 30 nM in the test on MDA-MB-231 cells and 27 ± 2 nM in the test on HeLa cells.
